No constants are given. Whether binding was seen depends on the method and setting. Binding seen in cells or lysates may run through a third protein. Some entries that bind do so weakly or less than the wild type.
Target: Myosin 9A (mouse (endogenous in immortalized mouse podocytes)) (UniProt Q8C170)
Assay: co-IP; immortalized mouse podocyte lysates (1% NP-40, 1% Triton X, 50 mM Hepes, 150 mM NaCl, 0.1 mM EDTA, 0.1 mM Neocuproine), pre-cleared with protein A agarose, anti-MYO9A rabbit polyclonal antibody at 4°C, agarose beads overnight, washed with PBS + protease inhibitors, western blot for RhoA and Myo9A

By UniProt entry, the sequences of proteins in these tests, tags left out.
UniProt Q8C170: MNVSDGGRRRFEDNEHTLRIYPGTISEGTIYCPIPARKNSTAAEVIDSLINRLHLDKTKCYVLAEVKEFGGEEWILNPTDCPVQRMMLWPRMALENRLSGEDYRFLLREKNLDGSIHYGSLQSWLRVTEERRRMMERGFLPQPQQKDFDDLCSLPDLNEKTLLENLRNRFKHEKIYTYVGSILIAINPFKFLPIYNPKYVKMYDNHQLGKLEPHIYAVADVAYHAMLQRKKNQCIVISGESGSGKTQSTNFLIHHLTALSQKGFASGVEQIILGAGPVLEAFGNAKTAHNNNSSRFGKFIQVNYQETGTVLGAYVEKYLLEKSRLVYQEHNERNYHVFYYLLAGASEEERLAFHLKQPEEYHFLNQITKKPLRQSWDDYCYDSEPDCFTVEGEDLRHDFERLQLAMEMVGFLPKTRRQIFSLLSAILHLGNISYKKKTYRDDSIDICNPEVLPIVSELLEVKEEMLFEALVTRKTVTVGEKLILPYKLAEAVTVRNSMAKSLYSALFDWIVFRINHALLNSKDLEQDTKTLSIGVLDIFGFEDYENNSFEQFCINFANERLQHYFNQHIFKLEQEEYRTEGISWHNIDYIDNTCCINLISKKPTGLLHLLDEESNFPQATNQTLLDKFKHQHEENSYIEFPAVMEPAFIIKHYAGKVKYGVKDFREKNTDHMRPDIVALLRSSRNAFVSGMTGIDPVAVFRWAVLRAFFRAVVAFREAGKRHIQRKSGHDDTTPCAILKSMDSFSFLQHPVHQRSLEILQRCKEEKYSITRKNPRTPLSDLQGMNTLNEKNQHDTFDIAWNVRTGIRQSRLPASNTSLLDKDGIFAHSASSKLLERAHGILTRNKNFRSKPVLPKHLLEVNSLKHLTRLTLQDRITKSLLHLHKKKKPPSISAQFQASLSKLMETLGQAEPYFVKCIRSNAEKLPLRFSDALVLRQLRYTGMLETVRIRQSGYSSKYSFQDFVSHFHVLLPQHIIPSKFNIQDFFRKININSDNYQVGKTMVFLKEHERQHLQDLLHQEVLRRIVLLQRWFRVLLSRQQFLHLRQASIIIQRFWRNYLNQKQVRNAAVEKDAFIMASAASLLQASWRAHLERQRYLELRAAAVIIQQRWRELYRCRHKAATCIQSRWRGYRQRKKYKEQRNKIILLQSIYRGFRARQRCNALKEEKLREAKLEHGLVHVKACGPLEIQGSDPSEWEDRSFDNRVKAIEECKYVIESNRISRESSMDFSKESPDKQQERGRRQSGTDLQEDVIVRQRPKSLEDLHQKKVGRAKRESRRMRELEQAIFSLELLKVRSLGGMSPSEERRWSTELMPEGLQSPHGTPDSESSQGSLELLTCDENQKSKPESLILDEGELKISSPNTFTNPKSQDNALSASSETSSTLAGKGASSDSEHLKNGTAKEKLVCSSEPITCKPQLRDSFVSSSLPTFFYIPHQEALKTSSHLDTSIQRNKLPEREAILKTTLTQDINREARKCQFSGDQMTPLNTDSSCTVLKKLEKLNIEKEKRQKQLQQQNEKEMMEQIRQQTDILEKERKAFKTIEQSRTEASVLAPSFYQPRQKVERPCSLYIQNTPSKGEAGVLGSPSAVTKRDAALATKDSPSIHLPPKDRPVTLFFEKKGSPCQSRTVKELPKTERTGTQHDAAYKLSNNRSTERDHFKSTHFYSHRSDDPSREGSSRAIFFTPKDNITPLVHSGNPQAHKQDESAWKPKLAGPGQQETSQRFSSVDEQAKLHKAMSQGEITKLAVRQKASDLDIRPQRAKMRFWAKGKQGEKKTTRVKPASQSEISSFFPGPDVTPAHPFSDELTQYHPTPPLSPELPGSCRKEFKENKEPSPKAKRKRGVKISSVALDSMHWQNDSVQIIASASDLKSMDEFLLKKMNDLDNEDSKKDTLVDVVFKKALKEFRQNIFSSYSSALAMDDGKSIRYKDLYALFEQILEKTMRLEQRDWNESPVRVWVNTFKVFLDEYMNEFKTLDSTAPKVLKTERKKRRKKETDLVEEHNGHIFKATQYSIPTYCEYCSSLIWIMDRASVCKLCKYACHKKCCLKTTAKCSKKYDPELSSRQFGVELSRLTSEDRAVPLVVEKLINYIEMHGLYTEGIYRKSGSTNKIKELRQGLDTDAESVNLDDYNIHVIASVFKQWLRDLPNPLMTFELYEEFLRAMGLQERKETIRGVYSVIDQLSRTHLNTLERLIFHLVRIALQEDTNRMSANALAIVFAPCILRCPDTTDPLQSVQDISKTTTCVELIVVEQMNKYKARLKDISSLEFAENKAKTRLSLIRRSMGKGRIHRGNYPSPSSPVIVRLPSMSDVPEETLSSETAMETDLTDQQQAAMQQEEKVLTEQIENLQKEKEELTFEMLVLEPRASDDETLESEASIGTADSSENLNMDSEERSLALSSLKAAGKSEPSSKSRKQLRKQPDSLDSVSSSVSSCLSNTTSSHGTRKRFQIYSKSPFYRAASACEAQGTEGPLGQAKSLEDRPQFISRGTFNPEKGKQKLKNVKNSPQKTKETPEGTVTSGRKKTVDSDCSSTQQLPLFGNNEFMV
UniProt Q9QUI0: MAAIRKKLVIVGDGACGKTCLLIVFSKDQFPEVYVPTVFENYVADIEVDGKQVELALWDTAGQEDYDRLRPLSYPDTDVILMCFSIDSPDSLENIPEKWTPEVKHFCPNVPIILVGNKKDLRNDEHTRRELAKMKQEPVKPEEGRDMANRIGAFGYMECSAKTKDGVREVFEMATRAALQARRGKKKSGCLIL

RhoA (from UniProt Q9QUI0 1-193)
binding: binds

Source: article PMC8316719
